# No constants are given. Whether binding was seen depends on the method and setting. Binding seen in cells or lysates may run through a third protein. Some results given as binding are weak or reduced against the parent protein; the word gives no strength. Tags and fused reporters may be left off the sequences shown.
# Protein sequences, listed by entry. Tags and fused reporters are not part of them.
# UniProt P31749: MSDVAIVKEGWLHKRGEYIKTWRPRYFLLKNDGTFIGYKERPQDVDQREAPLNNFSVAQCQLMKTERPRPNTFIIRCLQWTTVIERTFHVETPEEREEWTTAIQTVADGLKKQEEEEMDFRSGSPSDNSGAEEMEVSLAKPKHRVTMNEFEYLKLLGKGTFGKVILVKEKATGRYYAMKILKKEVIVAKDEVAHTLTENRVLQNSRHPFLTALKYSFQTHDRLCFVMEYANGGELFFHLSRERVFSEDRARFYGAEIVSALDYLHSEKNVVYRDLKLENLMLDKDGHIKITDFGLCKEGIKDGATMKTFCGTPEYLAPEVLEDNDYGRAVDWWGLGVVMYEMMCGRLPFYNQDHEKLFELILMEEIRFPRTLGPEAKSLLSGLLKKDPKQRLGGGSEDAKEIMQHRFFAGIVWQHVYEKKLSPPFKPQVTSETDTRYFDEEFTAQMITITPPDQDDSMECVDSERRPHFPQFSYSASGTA
# Target: T1, Flag-PDK1-P551A (UniProt O15530)
# T1 sequence: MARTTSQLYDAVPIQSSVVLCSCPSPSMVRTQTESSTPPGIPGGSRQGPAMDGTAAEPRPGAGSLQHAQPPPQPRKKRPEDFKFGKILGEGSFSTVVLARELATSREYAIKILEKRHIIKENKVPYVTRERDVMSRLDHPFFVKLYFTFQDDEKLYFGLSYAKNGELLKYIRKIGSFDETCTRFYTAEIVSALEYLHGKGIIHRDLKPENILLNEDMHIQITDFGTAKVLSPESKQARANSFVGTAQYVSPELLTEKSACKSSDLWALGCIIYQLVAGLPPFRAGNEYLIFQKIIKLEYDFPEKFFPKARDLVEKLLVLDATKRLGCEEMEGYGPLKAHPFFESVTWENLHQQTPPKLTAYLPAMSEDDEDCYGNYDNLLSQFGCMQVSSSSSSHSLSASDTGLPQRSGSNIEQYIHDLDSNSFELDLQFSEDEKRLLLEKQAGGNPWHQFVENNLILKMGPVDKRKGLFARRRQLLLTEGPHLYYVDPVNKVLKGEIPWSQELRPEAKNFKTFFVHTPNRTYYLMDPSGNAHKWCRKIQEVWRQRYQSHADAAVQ
# Assay: co-IP; immunoprecipitation (anti-Flag or anti-HA agarose, 2-4 h at 4 °C) from whole cell lysates of co-transfected 293T cells; EBC lysis buffer, four washes with NETN buffer, immunoblot; in some panels with HA-S6K1-R3A or knock-down of 14-3-3γ
substance,measurement,value
HA-AKT1 (from UniProt P31749 1-480) (enzyme),binding,binds

# Reference: publication PMC8941131
